{
  "source": "patent US10406098B2",
  "about": "“Injection solution comprising a non-nucleoside reverse-transcriptase inhibitor and poly(lactide-co-glycolide)” (Evonik Roehm GmbH, priority 2015, dated 2019)",
  "assay": "Release test in phosphate buffer saline pH 7.4 (standard body-fluid single compartment release experiment)",
  "format": "physicochemical",
  "conditions": "Rilpiverine at a concentration of 15% in the copolymer solution",
  "method": "Example Performance in a standard body-fluid single compartment release experiment Release Test: 100 ml of phosphate buffer saline pH 7.4 (PBS, British Pharmacopoeia) are given to a 200 ml volumetric flask. […] PBS-buffer is filled up to 200 ml. API release studies were performed in triplicate. Samples (2 ml) for HPLC analysis were taken at 0, 1, 2, 4, 24 and 96 hours and centrifuged for 5 minutes at 13400 rpm the supernatant was injected according to the HPLC method in Table 5. At 2, 4 and 24 hours 100 ml of the dissolution medium were pulled and 100 ml of fresh buffer was added (PBS 7.4). [table]",
  "note": "For at least one compound, name, drawing or mass did not settle the structure.",
  "data": [
    {"smiles": "Cc1cc(/C=C/C#N)cc(C)c1Nc1ccnc(Nc2ccc(C#N)cc2)n1", "note": "[Rilpiverine, Rilpivirine]", "values": [
      {"measurement": "bolus effect", "value": "completely avoided"}
    ]}
  ]
}
